Measured values from publication doi:10.1101/2022.01.26.477835.
Like-named read-outs stand apart in the source and are kept apart here. Results are given in words; binding and its absence hold for the method and conditions named. In cells and extracts the contact can be indirect. Some results given as binding are weak or reduced against the parent protein; the word gives no strength. Each block holds one substance with its values, some of them ahead of it.

Protein sequences, listed by entry. Tags and fused reporters are not part of them. Lines headed by an entry give the natural chain unless they say otherwise; changes in a name come on top. Residues count along the entry.
UniProt P63104, whole entry: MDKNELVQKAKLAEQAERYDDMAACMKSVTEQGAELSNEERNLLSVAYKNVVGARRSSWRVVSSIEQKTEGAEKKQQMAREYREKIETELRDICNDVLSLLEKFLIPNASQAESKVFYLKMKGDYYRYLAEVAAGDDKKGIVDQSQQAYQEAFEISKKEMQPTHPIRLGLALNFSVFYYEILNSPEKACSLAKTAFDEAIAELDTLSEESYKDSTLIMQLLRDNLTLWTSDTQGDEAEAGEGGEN
UniProt Q8R455, whole entry: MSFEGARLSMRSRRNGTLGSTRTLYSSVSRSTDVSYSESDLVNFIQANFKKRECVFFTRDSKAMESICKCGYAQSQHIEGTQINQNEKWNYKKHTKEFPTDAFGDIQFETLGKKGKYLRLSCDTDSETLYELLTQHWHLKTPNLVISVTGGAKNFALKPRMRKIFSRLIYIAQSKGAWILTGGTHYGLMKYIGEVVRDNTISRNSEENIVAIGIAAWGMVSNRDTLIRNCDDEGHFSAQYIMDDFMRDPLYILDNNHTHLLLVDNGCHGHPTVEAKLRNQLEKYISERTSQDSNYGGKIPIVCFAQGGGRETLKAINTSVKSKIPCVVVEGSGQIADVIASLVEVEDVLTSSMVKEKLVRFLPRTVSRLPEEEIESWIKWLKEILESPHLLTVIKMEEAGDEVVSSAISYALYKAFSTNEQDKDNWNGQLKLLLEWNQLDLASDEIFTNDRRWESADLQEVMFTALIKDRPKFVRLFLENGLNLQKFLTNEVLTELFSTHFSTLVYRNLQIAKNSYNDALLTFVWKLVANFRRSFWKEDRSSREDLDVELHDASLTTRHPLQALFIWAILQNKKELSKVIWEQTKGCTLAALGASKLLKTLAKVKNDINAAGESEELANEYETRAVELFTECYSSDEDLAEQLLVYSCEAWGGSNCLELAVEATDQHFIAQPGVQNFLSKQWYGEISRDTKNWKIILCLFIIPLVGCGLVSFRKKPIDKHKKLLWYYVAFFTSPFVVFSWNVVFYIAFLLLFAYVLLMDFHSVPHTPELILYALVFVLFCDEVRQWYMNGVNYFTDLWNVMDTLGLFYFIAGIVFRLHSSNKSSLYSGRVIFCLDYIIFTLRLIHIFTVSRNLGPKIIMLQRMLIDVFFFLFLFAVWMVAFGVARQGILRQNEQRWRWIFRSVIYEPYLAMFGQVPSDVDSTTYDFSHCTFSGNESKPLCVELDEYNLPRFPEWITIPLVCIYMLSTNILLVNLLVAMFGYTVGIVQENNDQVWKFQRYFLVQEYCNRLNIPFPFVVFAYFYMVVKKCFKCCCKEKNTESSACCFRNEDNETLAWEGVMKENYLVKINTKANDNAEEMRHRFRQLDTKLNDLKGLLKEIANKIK
UniProt Q8R455, 980-1104: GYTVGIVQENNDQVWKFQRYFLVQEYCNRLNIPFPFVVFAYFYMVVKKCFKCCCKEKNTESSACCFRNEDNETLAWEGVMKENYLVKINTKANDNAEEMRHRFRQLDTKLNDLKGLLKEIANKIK
UniProt Q7Z2W7, whole entry: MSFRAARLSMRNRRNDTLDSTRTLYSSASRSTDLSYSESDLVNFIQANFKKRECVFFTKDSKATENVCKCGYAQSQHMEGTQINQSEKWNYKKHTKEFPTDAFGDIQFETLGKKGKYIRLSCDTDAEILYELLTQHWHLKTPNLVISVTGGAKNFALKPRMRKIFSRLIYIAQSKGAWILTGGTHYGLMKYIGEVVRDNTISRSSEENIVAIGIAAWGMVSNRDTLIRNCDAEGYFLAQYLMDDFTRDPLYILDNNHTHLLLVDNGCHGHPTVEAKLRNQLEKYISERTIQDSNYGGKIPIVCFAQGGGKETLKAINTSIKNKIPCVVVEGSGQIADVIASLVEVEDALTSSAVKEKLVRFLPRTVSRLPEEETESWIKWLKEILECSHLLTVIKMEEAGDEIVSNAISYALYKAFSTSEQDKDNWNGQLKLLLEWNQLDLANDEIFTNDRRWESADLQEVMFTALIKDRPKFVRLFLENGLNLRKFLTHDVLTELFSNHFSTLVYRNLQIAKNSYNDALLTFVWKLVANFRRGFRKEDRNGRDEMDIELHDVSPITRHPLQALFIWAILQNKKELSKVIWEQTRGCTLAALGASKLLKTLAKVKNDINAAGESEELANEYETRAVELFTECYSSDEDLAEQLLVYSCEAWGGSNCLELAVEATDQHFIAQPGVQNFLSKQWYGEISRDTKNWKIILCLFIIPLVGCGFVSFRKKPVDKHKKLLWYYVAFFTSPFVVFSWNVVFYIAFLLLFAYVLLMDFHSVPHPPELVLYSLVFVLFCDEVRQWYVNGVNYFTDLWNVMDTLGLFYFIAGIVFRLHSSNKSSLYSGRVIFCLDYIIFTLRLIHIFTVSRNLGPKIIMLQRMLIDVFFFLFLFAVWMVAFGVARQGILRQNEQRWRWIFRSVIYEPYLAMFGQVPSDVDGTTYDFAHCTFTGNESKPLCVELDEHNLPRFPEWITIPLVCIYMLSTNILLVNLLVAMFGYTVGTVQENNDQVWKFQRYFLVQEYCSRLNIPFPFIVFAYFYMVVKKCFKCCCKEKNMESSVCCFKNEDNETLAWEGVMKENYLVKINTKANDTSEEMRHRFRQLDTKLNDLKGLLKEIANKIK
UniProt P06239, whole entry: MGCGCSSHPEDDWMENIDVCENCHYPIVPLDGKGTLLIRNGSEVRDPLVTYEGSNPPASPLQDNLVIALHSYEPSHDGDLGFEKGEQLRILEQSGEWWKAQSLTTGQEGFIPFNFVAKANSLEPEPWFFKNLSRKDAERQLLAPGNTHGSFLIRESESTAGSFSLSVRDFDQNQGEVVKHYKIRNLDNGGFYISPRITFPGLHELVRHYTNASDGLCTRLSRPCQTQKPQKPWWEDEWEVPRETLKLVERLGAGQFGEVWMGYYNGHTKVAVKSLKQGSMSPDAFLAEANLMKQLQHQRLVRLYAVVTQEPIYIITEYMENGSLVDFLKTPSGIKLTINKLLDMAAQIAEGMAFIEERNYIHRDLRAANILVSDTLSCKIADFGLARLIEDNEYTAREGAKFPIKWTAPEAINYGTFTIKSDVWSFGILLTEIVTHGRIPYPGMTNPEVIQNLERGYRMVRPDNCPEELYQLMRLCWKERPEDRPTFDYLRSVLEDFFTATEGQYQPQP
UniProt P51451, whole entry: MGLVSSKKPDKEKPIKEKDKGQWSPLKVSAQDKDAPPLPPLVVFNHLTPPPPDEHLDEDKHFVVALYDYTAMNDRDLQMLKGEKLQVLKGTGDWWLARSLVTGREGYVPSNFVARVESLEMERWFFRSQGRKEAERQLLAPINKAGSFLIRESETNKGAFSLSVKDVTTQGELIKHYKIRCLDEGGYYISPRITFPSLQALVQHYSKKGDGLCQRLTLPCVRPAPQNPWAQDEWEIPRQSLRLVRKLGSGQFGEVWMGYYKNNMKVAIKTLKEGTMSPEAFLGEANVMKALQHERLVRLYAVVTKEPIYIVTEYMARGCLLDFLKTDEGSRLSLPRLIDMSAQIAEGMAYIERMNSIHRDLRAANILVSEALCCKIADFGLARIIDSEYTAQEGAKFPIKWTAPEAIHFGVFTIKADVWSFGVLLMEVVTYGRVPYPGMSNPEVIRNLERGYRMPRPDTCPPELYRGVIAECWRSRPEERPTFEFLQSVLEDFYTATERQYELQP

Columns and labels:
[1] = target: 14-3-3ζ (endogenous) (human (endogenous in PANC-1 and MCF7)) (UniProt P63104); assay: co-IP
[2] = target: Flag-tagged mutant TRPM8-Y1022F (Flag-M8-Y1022F) (rat) (UniProt Q8R455); assay: co-IP
[3] = target: Flag-tagged C-terminus of TRPM8 (M8-C) (rat) (UniProt Q8R455); assay: co-IP
[4] = target: Flag-tagged N-terminus of TRPM8 (Flag-M8N) (rat) (UniProt Q8R455); assay: co-IP
[5] = target: Flag-tagged full-length TRPM8 (Flag-TRPM8) (rat) (UniProt Q8R455); assay: co-IP
[6] = target: GFP-tagged C-terminus of TRPM8 (GFP-M8C) (rat) (UniProt Q8R455); assay: co-IP
[7] = target: GST-tagged C-terminus of TRPM8 (GST-M8C) (rat) (UniProt Q8R455); assay: pull-down
[8] = target: TRPM8 (endogenous) (human (endogenous in PANC-1)) (UniProt Q7Z2W7); assay: co-IP
[9] = target: Flag-tagged full-length TRPM8 (Flag-TRPM8) (rat) (UniProt Q8R455); assay: co-IP; remark: listed apart in the source
[10] = target: Flag-tagged mutant TRPM8-Y1022F (Flag-M8-Y1022F) (rat) (UniProt Q8R455); assay: co-IP; remark: listed apart in the source
[11] = target: Flag-tagged mutant TRPM8-Y1022F (Flag-M8-Y1022F) (rat) (UniProt Q8R455); assay: cross-linking

Substance: GFP-tagged wild type TRPM8 (GFP-TRPM8) (from UniProt Q8R455 1-1104)
binding [2]: binds

Substance: HA-tagged LCK (HA-LCK) (from UniProt P06239 1-509) (enzyme)
binding [3]: binds
binding [4]: binds
binding [5]: binds
binding [6]: binds
binding [7]: binds

Substance: LCK (endogenous) (from UniProt P06239 1-509) (enzyme)
binding [8]: binds

Substance: GFP-tagged C-terminus of TRPM8 (GFP-M8C) (from UniProt Q8R455 980-1104) (domain or fragment)
binding [4]: binds

Substance: HA-tagged BLK (HA-BLK) (from UniProt P51451 1-505) (enzyme)
binding [5]: binds
binding [6]: binds
binding [7]: binds

The next lines start with the values.

binding [1]: binds
Substance: TRPM8 (endogenous) (from UniProt Q7Z2W7 1-1104)

binding [5]: binds
binding [9]: binds
binding [10]: binds
Substance: 14-3-3ζ (endogenous) (from UniProt P63104 1-245)

binding [11]: binds
Substance: Flag-tagged mutant TRPM8-Y1022F (Flag-M8-Y1022F) (from UniProt Q8R455 1-1104)

binding [7]: binds
Substance: GFP fused 14-3-3ζ (GFP-14-3-3ζ) (from UniProt P63104 1-245)
